According to the supplement of paper PMC12819154, “High-throughput peptide-centric local stability assay extends protein–ligand identification to membrane proteins, tissues and bacteria” (Nature Structural & Molecular Biology, 2025):
Some of the results follow. Most entries show no effect beyond the scatter of the controls.

By UniProt entry, the sequences of proteins in these tests, tags left out. Where a name states a change or a piece, a line headed by the entry shows the natural chain unless it says otherwise.
UniProt Q9QY76, whole entry: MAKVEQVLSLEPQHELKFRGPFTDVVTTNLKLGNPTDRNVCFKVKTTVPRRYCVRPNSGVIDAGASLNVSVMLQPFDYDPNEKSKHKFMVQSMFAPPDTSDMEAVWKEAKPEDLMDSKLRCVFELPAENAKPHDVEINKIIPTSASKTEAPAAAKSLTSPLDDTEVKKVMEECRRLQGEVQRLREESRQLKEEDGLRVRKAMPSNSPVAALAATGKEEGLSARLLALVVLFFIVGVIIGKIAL
UniProt Q9EP72: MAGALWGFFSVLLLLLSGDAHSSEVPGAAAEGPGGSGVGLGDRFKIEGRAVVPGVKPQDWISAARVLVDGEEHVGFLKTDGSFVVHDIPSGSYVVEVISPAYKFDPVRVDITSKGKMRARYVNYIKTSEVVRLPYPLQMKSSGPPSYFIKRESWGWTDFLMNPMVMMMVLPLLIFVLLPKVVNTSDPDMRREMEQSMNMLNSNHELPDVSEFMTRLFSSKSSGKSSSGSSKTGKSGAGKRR
UniProt Q9EP75: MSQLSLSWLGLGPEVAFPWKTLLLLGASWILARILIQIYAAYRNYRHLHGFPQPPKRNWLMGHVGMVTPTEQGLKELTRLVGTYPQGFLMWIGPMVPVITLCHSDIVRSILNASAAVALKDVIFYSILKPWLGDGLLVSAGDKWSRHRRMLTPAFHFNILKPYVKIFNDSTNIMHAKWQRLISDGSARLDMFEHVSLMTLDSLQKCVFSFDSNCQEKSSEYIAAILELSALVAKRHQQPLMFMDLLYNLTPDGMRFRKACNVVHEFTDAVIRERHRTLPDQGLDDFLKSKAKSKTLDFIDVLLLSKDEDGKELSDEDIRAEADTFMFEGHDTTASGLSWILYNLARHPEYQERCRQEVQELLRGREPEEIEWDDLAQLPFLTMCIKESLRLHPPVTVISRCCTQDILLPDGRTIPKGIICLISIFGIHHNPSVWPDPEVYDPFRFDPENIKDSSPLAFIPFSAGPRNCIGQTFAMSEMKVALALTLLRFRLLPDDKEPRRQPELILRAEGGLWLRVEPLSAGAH
UniProt Q9JIF7: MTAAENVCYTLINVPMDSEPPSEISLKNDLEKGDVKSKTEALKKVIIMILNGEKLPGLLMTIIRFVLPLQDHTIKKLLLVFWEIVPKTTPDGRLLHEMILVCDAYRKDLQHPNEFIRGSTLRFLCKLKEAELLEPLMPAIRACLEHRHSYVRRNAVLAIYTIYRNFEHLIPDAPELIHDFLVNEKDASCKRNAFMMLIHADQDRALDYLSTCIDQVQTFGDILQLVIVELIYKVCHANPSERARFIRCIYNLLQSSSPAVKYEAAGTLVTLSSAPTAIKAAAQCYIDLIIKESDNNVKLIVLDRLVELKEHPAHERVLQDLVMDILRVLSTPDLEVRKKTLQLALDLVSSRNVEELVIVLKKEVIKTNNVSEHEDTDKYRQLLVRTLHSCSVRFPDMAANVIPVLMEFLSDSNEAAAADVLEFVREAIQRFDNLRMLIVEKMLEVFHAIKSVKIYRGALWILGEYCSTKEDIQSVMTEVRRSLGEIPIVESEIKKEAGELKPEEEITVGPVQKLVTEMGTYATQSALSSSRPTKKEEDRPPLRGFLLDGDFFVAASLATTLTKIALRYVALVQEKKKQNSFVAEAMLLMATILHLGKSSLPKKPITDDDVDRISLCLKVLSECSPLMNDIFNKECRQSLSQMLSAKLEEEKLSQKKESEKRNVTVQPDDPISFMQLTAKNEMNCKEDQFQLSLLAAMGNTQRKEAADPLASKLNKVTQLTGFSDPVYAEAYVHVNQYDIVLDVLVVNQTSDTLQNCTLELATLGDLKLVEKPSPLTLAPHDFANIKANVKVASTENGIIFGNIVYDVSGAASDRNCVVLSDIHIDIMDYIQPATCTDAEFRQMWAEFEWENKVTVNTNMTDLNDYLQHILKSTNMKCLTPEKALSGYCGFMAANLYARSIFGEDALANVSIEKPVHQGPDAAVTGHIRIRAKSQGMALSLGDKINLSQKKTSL
UniProt Q9JLV1: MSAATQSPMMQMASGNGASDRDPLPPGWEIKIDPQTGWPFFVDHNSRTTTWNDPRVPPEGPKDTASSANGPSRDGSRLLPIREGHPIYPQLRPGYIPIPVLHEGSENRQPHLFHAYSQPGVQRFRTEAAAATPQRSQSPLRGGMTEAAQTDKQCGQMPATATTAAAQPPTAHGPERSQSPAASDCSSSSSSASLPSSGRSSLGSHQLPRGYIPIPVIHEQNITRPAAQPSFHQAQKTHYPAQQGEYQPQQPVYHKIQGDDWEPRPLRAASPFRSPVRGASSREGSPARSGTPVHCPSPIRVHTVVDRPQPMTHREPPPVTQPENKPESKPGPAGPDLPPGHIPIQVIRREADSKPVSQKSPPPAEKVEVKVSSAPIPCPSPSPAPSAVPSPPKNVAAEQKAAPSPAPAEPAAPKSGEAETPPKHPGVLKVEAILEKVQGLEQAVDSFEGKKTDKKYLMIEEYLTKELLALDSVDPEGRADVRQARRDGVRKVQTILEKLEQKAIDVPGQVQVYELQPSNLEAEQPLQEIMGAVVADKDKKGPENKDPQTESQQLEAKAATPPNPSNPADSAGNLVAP
UniProt Q9JMG1: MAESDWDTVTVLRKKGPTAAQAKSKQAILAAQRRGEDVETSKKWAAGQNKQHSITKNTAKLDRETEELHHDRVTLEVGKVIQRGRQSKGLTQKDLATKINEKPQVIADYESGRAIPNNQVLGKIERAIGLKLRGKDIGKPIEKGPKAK
UniProt Q9ER72: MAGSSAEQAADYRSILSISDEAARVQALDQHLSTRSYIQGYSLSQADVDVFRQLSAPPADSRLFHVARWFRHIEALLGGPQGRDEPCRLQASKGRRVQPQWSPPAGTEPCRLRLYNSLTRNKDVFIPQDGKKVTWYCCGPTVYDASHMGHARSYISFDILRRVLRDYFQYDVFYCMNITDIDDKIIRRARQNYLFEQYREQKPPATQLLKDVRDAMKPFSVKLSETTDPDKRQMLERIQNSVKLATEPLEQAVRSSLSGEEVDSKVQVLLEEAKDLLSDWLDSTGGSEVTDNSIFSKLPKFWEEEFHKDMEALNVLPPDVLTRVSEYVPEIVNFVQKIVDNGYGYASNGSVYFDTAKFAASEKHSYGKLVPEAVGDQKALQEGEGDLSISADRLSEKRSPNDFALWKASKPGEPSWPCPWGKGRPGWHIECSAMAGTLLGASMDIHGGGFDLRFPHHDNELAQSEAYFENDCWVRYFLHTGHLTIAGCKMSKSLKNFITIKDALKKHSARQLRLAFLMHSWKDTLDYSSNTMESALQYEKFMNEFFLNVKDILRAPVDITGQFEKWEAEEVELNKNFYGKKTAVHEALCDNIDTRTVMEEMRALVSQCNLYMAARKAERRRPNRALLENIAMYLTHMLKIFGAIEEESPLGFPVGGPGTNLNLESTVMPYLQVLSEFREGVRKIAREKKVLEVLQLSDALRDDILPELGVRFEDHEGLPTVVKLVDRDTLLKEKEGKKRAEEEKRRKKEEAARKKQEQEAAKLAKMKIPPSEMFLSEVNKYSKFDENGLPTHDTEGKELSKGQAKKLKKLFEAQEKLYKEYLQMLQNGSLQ
UniProt Q9JIF0, whole entry: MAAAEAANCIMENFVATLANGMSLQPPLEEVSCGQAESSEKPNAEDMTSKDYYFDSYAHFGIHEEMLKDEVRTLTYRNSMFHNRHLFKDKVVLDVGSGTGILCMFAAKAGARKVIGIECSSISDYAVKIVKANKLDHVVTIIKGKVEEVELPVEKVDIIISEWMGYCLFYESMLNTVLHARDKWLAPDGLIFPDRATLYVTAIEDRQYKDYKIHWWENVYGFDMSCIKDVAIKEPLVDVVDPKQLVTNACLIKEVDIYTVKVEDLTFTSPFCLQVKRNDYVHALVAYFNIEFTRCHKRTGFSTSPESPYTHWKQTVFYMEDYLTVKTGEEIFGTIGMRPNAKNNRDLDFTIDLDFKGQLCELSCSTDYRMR
UniProt Q9DD20: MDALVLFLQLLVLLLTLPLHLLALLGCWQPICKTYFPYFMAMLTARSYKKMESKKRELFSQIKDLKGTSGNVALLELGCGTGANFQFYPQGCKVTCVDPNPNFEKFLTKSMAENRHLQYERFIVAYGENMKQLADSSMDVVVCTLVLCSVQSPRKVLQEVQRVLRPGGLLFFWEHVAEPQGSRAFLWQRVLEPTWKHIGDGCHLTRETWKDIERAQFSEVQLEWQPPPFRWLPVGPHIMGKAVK
UniProt Q9ERL7, whole entry: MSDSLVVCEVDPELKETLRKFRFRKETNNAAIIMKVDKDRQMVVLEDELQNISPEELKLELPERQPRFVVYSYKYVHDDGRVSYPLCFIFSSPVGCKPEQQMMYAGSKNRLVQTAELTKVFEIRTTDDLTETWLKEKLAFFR
UniProt Q9QY30: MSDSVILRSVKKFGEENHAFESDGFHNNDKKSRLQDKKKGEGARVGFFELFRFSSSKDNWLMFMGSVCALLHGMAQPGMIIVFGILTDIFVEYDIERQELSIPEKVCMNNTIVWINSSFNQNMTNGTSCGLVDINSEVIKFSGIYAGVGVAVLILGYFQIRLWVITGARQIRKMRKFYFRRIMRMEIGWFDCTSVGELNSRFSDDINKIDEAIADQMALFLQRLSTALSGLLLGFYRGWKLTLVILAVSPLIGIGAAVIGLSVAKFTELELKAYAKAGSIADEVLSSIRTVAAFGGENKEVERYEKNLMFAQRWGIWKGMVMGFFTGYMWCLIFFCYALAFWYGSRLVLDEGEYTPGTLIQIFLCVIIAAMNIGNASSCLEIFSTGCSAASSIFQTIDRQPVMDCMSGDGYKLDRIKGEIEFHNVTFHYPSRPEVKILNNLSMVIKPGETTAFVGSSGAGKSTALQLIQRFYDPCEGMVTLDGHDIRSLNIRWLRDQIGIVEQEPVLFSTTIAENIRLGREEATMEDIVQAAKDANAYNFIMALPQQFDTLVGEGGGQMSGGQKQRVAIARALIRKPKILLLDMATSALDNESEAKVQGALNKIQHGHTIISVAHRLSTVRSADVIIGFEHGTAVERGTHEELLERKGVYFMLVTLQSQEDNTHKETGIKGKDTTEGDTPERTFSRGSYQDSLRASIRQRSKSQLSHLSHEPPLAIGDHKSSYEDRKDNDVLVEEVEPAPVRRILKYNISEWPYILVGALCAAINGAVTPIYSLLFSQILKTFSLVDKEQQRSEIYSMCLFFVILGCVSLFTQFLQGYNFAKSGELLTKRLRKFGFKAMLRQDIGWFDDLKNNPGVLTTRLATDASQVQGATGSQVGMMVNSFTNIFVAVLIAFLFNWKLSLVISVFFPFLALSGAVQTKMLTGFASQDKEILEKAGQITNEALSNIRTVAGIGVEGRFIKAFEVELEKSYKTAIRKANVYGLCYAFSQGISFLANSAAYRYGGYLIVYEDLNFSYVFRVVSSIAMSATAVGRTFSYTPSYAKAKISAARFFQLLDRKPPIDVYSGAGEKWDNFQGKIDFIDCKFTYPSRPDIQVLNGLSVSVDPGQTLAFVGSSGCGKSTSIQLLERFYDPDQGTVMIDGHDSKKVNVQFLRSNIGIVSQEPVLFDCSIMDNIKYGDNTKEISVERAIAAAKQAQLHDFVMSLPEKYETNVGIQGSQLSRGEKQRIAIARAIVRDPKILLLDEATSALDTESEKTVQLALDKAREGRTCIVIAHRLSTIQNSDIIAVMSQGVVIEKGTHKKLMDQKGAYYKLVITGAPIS
UniProt Q9EQ28: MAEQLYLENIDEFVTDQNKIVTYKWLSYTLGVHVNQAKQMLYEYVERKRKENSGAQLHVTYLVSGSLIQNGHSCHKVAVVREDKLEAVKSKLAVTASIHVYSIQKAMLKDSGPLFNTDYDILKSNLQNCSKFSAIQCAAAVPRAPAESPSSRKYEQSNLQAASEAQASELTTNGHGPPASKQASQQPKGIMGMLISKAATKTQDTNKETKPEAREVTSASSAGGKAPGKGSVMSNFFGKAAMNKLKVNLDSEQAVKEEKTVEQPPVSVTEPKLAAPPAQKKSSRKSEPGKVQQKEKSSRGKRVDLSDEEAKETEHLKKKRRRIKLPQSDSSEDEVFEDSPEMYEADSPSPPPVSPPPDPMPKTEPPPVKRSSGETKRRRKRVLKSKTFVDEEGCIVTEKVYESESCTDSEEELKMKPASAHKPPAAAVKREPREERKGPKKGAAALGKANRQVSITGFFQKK
UniProt Q9JLJ4: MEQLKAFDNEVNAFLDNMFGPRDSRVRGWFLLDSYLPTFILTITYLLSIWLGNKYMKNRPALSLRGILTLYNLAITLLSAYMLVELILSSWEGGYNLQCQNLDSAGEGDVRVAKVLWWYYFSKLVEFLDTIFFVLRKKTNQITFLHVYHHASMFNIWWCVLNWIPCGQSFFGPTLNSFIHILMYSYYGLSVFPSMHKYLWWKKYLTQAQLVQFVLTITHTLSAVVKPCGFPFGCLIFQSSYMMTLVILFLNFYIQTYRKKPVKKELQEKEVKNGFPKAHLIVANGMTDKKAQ
UniProt Q9DCI3: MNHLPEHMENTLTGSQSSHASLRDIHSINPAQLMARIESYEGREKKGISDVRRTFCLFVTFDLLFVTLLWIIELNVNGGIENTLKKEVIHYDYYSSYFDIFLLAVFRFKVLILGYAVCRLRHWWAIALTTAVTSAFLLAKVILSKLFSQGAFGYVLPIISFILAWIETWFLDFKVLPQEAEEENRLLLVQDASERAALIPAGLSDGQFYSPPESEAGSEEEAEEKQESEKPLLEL

compound: CN[C@@H]1C[C@H]2O[C@@](C)([C@@H]1OC)n1c3ccccc3c3c4c(c5c6ccccc6n2c5c31)C(=O)NC4 [staurosporine]; assay: log2 fold change of pooled soluble protein (PISA), ligand vs vehicle (log2 ratio); higher = more thermally stabilized; settings: ligand concentration: 20 uM; assay format: PISA pool 52.9/55.5/58.6 C

Question: How did the “log2 fold change of pooled soluble protein” value (from here on “log2 fold change”) turn out when UniProt Q9DCM2 was run?
Answer: 0.406

Question: For UniProt Q9ERU9, which “log2 fold change” value is on record?
Answer: -0.0443

Question: UniProt Q9JMA1 was tested. Which “log2 fold change” value did it give?
Answer: -0.0836

Question: For UniProt Q9JLB9, which “log2 fold change” value is on record?
Answer: -0.132

Question: For UniProt Q9JKR6, which “log2 fold change” value is on record?
Answer: 0.0413

Question: How did the “log2 fold change” value turn out when UniProt Q9QY76 was run?
Answer: -0.036

Question: How did the “log2 fold change” value turn out when UniProt Q9EP72 was run?
Answer: 0.0787

Question: How did the “log2 fold change” value turn out when UniProt Q9JM52 was run?
Answer: -0.0322

Question: How did the “log2 fold change” value turn out when UniProt Q9QYB5 was run?
Answer: 0.021

Question: Which “log2 fold change” value does the source give for UniProt Q9JHH9 here?
Answer: 0.097

Question: How did the “log2 fold change” value turn out when UniProt Q9EP75 was run?
Answer: 0.182

Question: UniProt Q9JIF7 was tested. Which “log2 fold change” value did it give?
Answer: 0.0654

Question: How did the “log2 fold change” value turn out when UniProt Q9JKN1 was run?
Answer: 0.221

Question: Which “log2 fold change” value does the source give for UniProt Q9QYC0 here?
Answer: 0.118

Question: UniProt Q9JLV1 was tested. Which “log2 fold change” value did it give?
Answer: 0.0283

Question: Which “log2 fold change” value does the source give for UniProt Q9JMG1 here?
Answer: -0.0757

Question: Which “log2 fold change” value does the source give for UniProt Q9JHS9 here?
Answer: 0.0569

Question: How did the “log2 fold change” value turn out when UniProt Q9DCD0 was run?
Answer: 0.0176

Question: UniProt Q9ER69 was tested. Which “log2 fold change” value did it give?
Answer: -0.0167

Question: With UniProt Q9ET30 as the target, how does the “log2 fold change” value read?
Answer: -0.333

Question: Which “log2 fold change” value does the source give for UniProt Q9EP89 here?
Answer: 0.0896

Question: How did the “log2 fold change” value turn out when UniProt Q9ER72 was run?
Answer: 0.039

Question: Which “log2 fold change” value does the source give for UniProt Q9JIF0 here?
Answer: 0.145

Question: Which “log2 fold change” value does the source give for UniProt Q9DD20 here?
Answer: -0.0701

Question: Which “log2 fold change” value does the source give for UniProt Q9JLF6 here?
Answer: 0.0343

Question: UniProt Q9JLJ2 was tested. Which “log2 fold change” value did it give?
Answer: 0.119

Question: With UniProt Q9DC70 as the target, how does the “log2 fold change” value read?
Answer: 0.0637

Question: Which “log2 fold change” value does the source give for UniProt Q9JKX3 here?
Answer: 0.019

Question: With UniProt Q9ERL7 as the target, how does the “log2 fold change” value read?
Answer: -0.0666

Question: With UniProt Q9JIK5 as the target, how does the “log2 fold change” value read?
Answer: -0.0148

Question: How did the “log2 fold change” value turn out when UniProt Q9QY30 was run?
Answer: 0.00161

Question: How did the “log2 fold change” value turn out when UniProt Q9JMG7 was run?
Answer: 0.0239

Question: Which “log2 fold change” value does the source give for UniProt Q9EQ28 here?
Answer: 0.235

Question: How did the “log2 fold change” value turn out when UniProt Q9JLJ4 was run?
Answer: -0.0228

Question: For UniProt Q9QXD1, which “log2 fold change” value is on record?
Answer: 0.000395

Question: For UniProt Q9DCI3, which “log2 fold change” value is on record?
Answer: -0.122
